Source: publication PMC11649915
These are yes or no findings as the source states them, for the method shown. Binding seen in cells or lysates may run through a third protein. Some entries that bind do so weakly or less than the wild type.

Protein sequences, listed by entry. Tags and fused reporters are not part of them.
UniProt Q13283: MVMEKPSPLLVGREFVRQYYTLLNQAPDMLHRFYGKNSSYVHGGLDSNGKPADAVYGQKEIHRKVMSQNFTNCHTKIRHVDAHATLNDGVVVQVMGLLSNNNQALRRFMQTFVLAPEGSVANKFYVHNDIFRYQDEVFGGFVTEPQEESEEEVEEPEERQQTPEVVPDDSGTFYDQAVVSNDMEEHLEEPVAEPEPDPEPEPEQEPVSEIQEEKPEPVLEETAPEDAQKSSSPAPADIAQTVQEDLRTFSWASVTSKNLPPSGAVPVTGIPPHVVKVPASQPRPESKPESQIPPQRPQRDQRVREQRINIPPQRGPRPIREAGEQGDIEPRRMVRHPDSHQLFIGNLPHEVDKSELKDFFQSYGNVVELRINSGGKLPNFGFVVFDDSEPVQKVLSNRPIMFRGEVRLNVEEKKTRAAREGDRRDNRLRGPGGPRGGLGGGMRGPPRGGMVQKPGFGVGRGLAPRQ

Target: GFP-tagged N protein of SARS-CoV (SARS-CoV) (UniProt P59595)
Assay: co-IP

Substance: endogenous G3BP1 (from UniProt Q13283 1-466)
- binding: binds
